We go through 2 sequences from article PMC11077064, “The origin recognition complex requires chromatin tethering by a hypervariable intrinsically disordered region that is functionally conserved from sponge to man”.

Chains of the proteins cited; added tags and fusions are not shown. Chains listed by the source or under a name are the forms on record and can include a tag or linker. Residues count along the entry.
UniProt O16810, 187-549: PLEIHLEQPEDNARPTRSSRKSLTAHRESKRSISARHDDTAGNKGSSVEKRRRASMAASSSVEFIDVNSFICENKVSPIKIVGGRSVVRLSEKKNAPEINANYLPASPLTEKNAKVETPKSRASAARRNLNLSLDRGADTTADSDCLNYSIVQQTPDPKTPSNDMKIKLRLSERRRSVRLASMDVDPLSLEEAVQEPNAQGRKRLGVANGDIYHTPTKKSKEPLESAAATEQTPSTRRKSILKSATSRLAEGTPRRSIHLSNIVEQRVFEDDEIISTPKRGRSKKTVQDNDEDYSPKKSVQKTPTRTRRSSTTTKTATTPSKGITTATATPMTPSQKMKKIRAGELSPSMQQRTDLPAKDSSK
DmORC holocomplex (Orc1-6) (Drosophila melanogaster), one chain, as listed by the source, chain 3 of 4: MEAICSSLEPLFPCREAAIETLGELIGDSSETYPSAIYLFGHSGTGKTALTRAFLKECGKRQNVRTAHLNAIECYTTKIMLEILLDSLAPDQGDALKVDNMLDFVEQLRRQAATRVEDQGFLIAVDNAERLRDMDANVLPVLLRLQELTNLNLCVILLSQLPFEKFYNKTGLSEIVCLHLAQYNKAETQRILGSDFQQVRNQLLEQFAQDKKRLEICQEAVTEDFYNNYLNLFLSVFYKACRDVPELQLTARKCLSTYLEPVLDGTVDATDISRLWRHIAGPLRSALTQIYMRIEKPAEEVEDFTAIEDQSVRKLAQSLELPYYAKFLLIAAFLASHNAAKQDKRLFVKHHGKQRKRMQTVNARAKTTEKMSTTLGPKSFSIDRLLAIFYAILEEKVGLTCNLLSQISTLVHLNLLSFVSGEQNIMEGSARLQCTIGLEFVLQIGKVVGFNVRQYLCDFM
DmORC holocomplex (Orc1-6) (Drosophila melanogaster), one chain, as listed by the source, chain 4 of 4: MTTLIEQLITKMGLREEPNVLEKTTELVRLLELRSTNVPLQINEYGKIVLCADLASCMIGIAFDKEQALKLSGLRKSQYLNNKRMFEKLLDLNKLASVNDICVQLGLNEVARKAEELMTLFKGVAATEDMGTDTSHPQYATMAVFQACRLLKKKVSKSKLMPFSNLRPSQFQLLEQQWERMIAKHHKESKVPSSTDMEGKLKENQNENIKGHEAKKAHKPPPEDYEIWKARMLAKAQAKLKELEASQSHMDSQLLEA
DmORC holocomplex (Orc1-6) (Drosophila melanogaster), one chain, as listed by the source, chain 1 of 4: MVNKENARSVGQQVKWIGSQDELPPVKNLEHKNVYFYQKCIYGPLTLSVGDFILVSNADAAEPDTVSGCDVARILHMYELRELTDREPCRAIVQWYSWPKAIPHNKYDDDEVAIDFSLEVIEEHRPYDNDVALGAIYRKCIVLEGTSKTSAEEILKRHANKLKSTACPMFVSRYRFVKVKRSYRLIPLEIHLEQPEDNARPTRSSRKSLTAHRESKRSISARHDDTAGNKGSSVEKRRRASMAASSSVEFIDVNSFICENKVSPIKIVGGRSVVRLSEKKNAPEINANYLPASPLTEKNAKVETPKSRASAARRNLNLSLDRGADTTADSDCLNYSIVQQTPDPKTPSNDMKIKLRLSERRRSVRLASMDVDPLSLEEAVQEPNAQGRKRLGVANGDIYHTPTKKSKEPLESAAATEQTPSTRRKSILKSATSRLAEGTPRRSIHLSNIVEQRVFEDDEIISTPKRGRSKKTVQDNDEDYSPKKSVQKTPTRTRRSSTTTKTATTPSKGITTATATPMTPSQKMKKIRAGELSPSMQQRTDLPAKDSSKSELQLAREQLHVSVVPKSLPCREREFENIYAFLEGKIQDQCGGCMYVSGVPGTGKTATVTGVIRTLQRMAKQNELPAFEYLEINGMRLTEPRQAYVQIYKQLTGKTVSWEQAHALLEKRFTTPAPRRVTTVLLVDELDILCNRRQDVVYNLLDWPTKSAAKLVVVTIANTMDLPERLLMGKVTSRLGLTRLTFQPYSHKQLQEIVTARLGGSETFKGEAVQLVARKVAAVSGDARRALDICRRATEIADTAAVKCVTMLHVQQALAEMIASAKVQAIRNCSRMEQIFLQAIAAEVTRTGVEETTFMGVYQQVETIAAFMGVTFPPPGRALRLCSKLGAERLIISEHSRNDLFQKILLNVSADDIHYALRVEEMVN
DmORC holocomplex (Orc1-6) (Drosophila melanogaster), one chain, as listed by the source, chain 2 of 4: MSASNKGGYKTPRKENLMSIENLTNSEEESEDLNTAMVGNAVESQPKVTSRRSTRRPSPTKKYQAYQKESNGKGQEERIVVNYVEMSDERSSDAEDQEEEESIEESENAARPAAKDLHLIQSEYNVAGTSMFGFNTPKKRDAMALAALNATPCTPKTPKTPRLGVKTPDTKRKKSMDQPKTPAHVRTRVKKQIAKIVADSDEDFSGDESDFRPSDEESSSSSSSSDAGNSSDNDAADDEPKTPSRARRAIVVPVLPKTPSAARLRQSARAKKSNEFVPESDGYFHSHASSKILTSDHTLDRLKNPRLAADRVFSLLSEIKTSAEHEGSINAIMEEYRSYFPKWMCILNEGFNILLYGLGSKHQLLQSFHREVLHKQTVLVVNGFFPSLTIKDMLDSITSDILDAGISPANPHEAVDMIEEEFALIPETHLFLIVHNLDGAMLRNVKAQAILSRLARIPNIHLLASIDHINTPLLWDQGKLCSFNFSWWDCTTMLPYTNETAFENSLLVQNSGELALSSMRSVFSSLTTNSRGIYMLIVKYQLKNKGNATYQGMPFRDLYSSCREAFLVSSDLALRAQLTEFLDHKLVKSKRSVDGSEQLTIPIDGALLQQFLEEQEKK

In data set [1] the test system is BpOrc1 IDR (Brachionus plicatilis). Kind of data set: fluorescence polarization. Particulars: no saturation, Kd N.D.; FP: same with 150 or 300 mM K-glutamate, 5 mM MgOAc, 0 or 1 mM ATP, RT 30 min; recombinant protein; protein details: His6-MBP removed by TEV. A general note: In fluorescence polarisation assays a small probe gives low polarisation when free and higher when bound to something large.

For data set [2], the system named is DmORC holocomplex (Orc1-6) (Drosophila melanogaster). Briefly: fluorescence polarization. Particulars: no ATP, 300 mM KGlut, 5 mM MgOAc, Kd N.D., binding strictly ATP-dependent, FP: same with 150 or 300 mM K-glutamate, 0 or 1 mM ATP, RT 30 min, recombinant protein, protein details: Orc1 His6 and Orc4 MBP, TEV-cleaved.
In data set [3] the target is DmOrc1 IDR treated with CDK1/CycA (Drosophila melanogaster) (UniProt O16810). Briefly: fluorescence polarization. Particulars: 5 uM IDR, 1 uM CDK1/CycA, 1 mM ATP; FP: same with 150 or 300 mM K-glutamate, 5 mM MgOAc, 0 or 1 mM ATP, RT 30 min; recombinant protein; residues 187-549; protein details: His6-MBP removed by TEV.
The target in data set [4] is DmOrc1 IDR treated with CDK2/CycE (Drosophila melanogaster) (UniProt O16810). Kind of data set: fluorescence polarization. Particulars: 5 uM IDR, 1 uM CDK2/CycE, 1 mM ATP, also linear decrease in time course with 50 nM kinase (Fig 3K); FP: same with 150 or 300 mM K-glutamate, 5 mM MgOAc, 0 or 1 mM ATP, RT 30 min; recombinant protein; residues 187-549; protein details: His6-MBP removed by TEV.

For data set [5], the system named is HdOrc1 IDR (Hypsibius dujardini). Kind of data set: fluorescence polarization. Particulars: no saturation, Kd N.D.; FP: same with 150 or 300 mM K-glutamate, 5 mM MgOAc, 0 or 1 mM ATP, RT 30 min; recombinant protein; protein details: His6-MBP removed by TEV.
For data set [6], the system named is AmOrc1 IDR (Acropora millepora). Briefly: EMSA. Particulars: 600 nM; EMSA: 50 mM HEPES pH 7.5, 150 mM K-glutamate, 10% glycerol, 1 mM BME, 2 nM DNA, RT 20 min, 1% agarose; recombinant protein; protein details: His6-MBP removed by TEV.
Data set [7] has as its system AmOrc1 IDR treated with CDK2/CycE (Acropora millepora). Briefly: EMSA. Particulars: 600 nM, CDK2/CycE-treated; EMSA: 50 mM HEPES pH 7.5, 150 mM K-glutamate, 10% glycerol, 1 mM BME, 2 nM DNA, RT 20 min, 1% agarose; recombinant protein; protein details: His6-MBP removed by TEV. (In EMSA bound probe runs differently from free probe, usually more slowly.)
Data set [8] relates to AqOrc1 IDR (Amphimedon queenslandica). Briefly: EMSA. Particulars: 600 nM, relatively weak affinity; EMSA: 50 mM HEPES pH 7.5, 150 mM K-glutamate, 10% glycerol, 1 mM BME, 2 nM DNA, RT 20 min, 1% agarose; recombinant protein; protein details: His6-MBP removed by TEV.
Data set [9] relates to AqOrc1 IDR treated with CDK2/CycE (Amphimedon queenslandica). Briefly: EMSA. Particulars: 600 nM, CDK2/CycE-treated, not regulated; EMSA: 50 mM HEPES pH 7.5, 150 mM K-glutamate, 10% glycerol, 1 mM BME, 2 nM DNA, RT 20 min, 1% agarose; recombinant protein; protein details: His6-MBP removed by TEV.
Data set [10] concerns BpOrc1 IDR (Brachionus plicatilis). Kind of data set: EMSA. Particulars: 600 nM; EMSA: 50 mM HEPES pH 7.5, 150 mM K-glutamate, 10% glycerol, 1 mM BME, 2 nM DNA, RT 20 min, 1% agarose; recombinant protein; protein details: His6-MBP removed by TEV.
In data set [11] the test system is BpOrc1 IDR treated with CDK2/CycE (Brachionus plicatilis). Kind of data set: EMSA. Particulars: 600 nM, CDK2/CycE-treated; EMSA: 50 mM HEPES pH 7.5, 150 mM K-glutamate, 10% glycerol, 1 mM BME, 2 nM DNA, RT 20 min, 1% agarose; recombinant protein; protein details: His6-MBP removed by TEV.
In data set [12] the test system is DgOrc1 IDR (Dimorphilus gyrociliatus). Briefly: EMSA. Particulars: 600 nM; EMSA: 50 mM HEPES pH 7.5, 150 mM K-glutamate, 10% glycerol, 1 mM BME, 2 nM DNA, RT 20 min, 1% agarose; recombinant protein; protein details: His6-MBP removed by TEV.
Data set [13] has as its system DgOrc1 IDR treated with CDK2/CycE (Dimorphilus gyrociliatus). Kind of data set: EMSA. Particulars: 600 nM, CDK2/CycE-treated, only partially regulated; EMSA: 50 mM HEPES pH 7.5, 150 mM K-glutamate, 10% glycerol, 1 mM BME, 2 nM DNA, RT 20 min, 1% agarose; recombinant protein; protein details: His6-MBP removed by TEV.
Data set [14] addresses DmOrc1 IDR treated with CDK2/CycE (Drosophila melanogaster) (UniProt O16810). Briefly: EMSA. Particulars: 600 nM, CDK2/CycE-treated, free DNA band, label not certain; EMSA: 50 mM HEPES pH 7.5, 150 mM K-glutamate, 10% glycerol, 1 mM BME, 2 nM DNA, RT 20 min, 1% agarose; recombinant protein; residues 187-549; protein details: His6-MBP removed by TEV.
For data set [15], the system named is HdOrc1 IDR (Hypsibius dujardini). Briefly: EMSA. Particulars: 600 nM; EMSA: 50 mM HEPES pH 7.5, 150 mM K-glutamate, 10% glycerol, 1 mM BME, 2 nM DNA, RT 20 min, 1% agarose; recombinant protein; protein details: His6-MBP removed by TEV.
The test system of data set [16] is HdOrc1 IDR treated with CDK2/CycE (Hypsibius dujardini). Briefly: EMSA. Particulars: 600 nM, CDK2/CycE-treated, not regulated; EMSA: 50 mM HEPES pH 7.5, 150 mM K-glutamate, 10% glycerol, 1 mM BME, 2 nM DNA, RT 20 min, 1% agarose; recombinant protein; protein details: His6-MBP removed by TEV.
The subject of data set [17] is MyOrc1 IDR (Mizuhopecten yessoensis). Kind of data set: EMSA. Particulars: 600 nM; EMSA: 50 mM HEPES pH 7.5, 150 mM K-glutamate, 10% glycerol, 1 mM BME, 2 nM DNA, RT 20 min, 1% agarose; recombinant protein; protein details: His6-MBP removed by TEV.
Data set [18] concerns MyOrc1 IDR treated with CDK2/CycE (Mizuhopecten yessoensis). Kind of data set: EMSA. Particulars: 600 nM, CDK2/CycE-treated, not regulated; EMSA: 50 mM HEPES pH 7.5, 150 mM K-glutamate, 10% glycerol, 1 mM BME, 2 nM DNA, RT 20 min, 1% agarose; recombinant protein; protein details: His6-MBP removed by TEV.
Data set [19] concerns the target pOrc1 IDR (CDK2/CycE phosphorylated) (Drosophila melanogaster) (UniProt O16810). Briefly: EMSA. Particulars: Kd N.D., >100-fold reduction in affinity, label not stated; EMSA: 50 mM HEPES pH 7.5, 150 mM K-glutamate, 10% glycerol, 1 mM BME, 2 nM DNA, RT 20 min, 1% agarose; recombinant protein; residues 187-549; protein details: His6-MBP removed by TEV.

Construct, isoform or probe ends are uncertain for at least one entry. For some of these results: No signal at the amounts used counts as a negative. For some of these results: A weaker result is weaker than the reference pair of the same experiment. For some of these results: At least one verdict was read from the data and is not stated in words by the source.

As for “GAAGCTAGACTTAGGTGTCATATTGAACCTACTATGCCGAACTAGTTACGAGCTATAACC (double strand) [FITC-dsDNA 60 bp]”, the binding result in data set [1] is “binds more weakly”; in data set [2] it was “no binding”; in [3], “binds more weakly”; in [4] it was “binds more weakly”; in [5], “binds more weakly”.

With “GAAGCTAGACTTAGGTGTCATATTGAACCTACTATGCCGAACTAGTTACGAGCTATAACC (double strand) [Cy5-dsDNA 60 bp]”, the binding result in data set [6] is given as “binds”; in data set [7] it was “binds more weakly”; in data set [8], “binds more weakly”; in data set [9] it was “binds”; in data set [10], “binds”; in [11] it was “binds more weakly”. In addition, the binding result is listed as “binds” in data set [12]; “binds more weakly” in [13]; “binds more weakly” in data set [14]; “binds” in data set [15]; “binds” in data set [16]; “binds” in data set [17]. Moreover, the binding result in [18] is recorded as “binds”; in data set [19], “binds more weakly”.
